Earlier results on two compounds are cited in patent US20110257236A1, “SOLID SOLUTION OF VALINE, ISOLEUCINE, LEUCINE AND ITS MANUFACTURING METHOD” (AJINOMOTO CO., INC., priority 2008, published 2011).

The conditions of the data set: taste (bitter taste); cited from earlier work.

As for `CC[C@H](C)[C@H](N)C(=O)O` [Ile, L-isoleucine], the stimulus threshold was 90 mg/dL. Regarding `CC(C)[C@H](N)C(=O)O` [Val, L-valine], the stimulus threshold was 150 mg/dL.
